{"source": "PubChem BioAssay AID1053208 (Peter MacCallum Cancer Centre, 2014)", "screen": "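Find knock-downs that sensitise mouse osteosarcoma cells to doxorubicin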 (primary screen)", "cell system": "mouse osteosarcoma cells, early-passage culture from an engineered mouse model of fibroblastic bone tumour", "reagents": "siRNA pool against mouse genes, 40 nM", "time to read-out": "about 120 h (48 h before drug, then 72 h with drug)", "challenge": "doxorubicin 100 nM for 72 h, roughly 30-40% inhibitory dose", "detection": "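Viability read as ATP luminescence after 72 h of 100 nM doxorubicin or none, duplicate wells averaged, scaled to non-targeting siRNA, then expressed as robust z-scores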", "reading the numbers": "viability z-score with doxorubicin: higher = more viable cells under doxorubicin; viability z-score without drug: higher = more viable cells with knock-down alone", "hit rule": "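Called active if knock-down leaves viability unchanged without drug (z within -2 to 2) but lowers it with doxorubicin (z at or under -2)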", "note": "Here is an unselected part of about 17,000 reagents tested. 788 of them (4.7%) count as active. 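Calls rest on z-score classes alone; an extra cut-off of viability at most 70% of control was not applied to them.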 Entries without a mark were called inactive. The numbers tell different reagents against one gene apart. Further read-outs or replicates are left out here. Reagent sequences are not shown."}
{"gene symbol": "Map6", "reagent": 1, "combined z-score class": "no change with or without drug", "viability z-score with doxorubicin": -1.46, "viability z-score without drug": 0.51}
{"gene symbol": "Adamdec1", "reagent": 1, "combined z-score class": "no change with or without drug", "viability z-score with doxorubicin": -0.45, "viability z-score without drug": -0.51}
{"gene symbol": "Dbil5", "reagent": 1, "combined z-score class": "no change with or without drug", "viability z-score with doxorubicin": 1.46, "viability z-score without drug": 1.69}
{"gene symbol": "Or56a3", "reagent": 1, "combined z-score class": "no change with or without drug", "viability z-score with doxorubicin": -0.22, "viability z-score without drug": -0.17}
{"gene symbol": "Spesp1", "reagent": 1, "combined z-score class": "no change with or without drug", "viability z-score with doxorubicin": 0.45, "viability z-score without drug": 1.85}
{"gene symbol": "Pgk1", "reagent": 1, "combined z-score class": "no change with or without drug", "viability z-score with doxorubicin": -0.45, "viability z-score without drug": -1.52}
{"gene symbol": "Cdh11", "reagent": 1, "combined z-score class": "low cell count with doxorubicin only (active)", "viability z-score with doxorubicin": -2.25, "viability z-score without drug": -0.67}
{"gene symbol": "Actr2", "reagent": 1, "combined z-score class": "low cell count without drug only", "viability z-score with doxorubicin": -1.35, "viability z-score without drug": -2.53}
{"gene symbol": "Mre11a", "reagent": 1, "combined z-score class": "no change with or without drug", "viability z-score with doxorubicin": 1.12, "viability z-score without drug": -0.17}
{"gene symbol": "Gp1ba", "reagent": 1, "combined z-score class": "no change with or without drug", "viability z-score with doxorubicin": 0.56, "viability z-score without drug": 0.84}
{"gene symbol": "Or2g7", "reagent": 1, "combined z-score class": "no change with or without drug", "viability z-score with doxorubicin": -1.57, "viability z-score without drug": -0.51}
{"gene symbol": "Arhgef25", "reagent": 1, "combined z-score class": "no change with or without drug", "viability z-score with doxorubicin": 0.45, "viability z-score without drug": -1.52}
{"gene symbol": "Hs3st1", "reagent": 1, "combined z-score class": "no change with or without drug", "viability z-score with doxorubicin": 1.24, "viability z-score without drug": 0.51}
{"gene symbol": "Msx1", "reagent": 1, "combined z-score class": "no change with or without drug", "viability z-score with doxorubicin": 0.56, "viability z-score without drug": -0.84}
{"gene symbol": "Atp11b", "reagent": 1, "combined z-score class": "no change with or without drug", "viability z-score with doxorubicin": -1.69, "viability z-score without drug": 0.34}
{"gene symbol": "Itih4", "reagent": 1, "combined z-score class": "low cell count with doxorubicin only (active)", "viability z-score with doxorubicin": -2.02, "viability z-score without drug": -1.01}
{"gene symbol": "Syt11", "reagent": 1, "combined z-score class": "no change with or without drug", "viability z-score with doxorubicin": -0.67, "viability z-score without drug": -1.18}
{"gene symbol": "Abcb7", "reagent": 1, "combined z-score class": "no change with or without drug", "viability z-score with doxorubicin": 0.22, "viability z-score without drug": 0.67}
{"gene symbol": "Rmnd5a", "reagent": 1, "combined z-score class": "no change with or without drug", "viability z-score with doxorubicin": 0.22, "viability z-score without drug": -0.34}
{"gene symbol": "Hsf2", "reagent": 1, "combined z-score class": "no change with or without drug", "viability z-score with doxorubicin": -1.57, "viability z-score without drug": -0.51}
{"gene symbol": "Hip1r", "reagent": 1, "combined z-score class": "no change with or without drug", "viability z-score with doxorubicin": 1.01, "viability z-score without drug": 1.35}
{"gene symbol": "Dnajc2", "reagent": 1, "combined z-score class": "no change with or without drug", "viability z-score with doxorubicin": -0.11, "viability z-score without drug": 0}
{"gene symbol": "Dnajc2", "reagent": 2, "combined z-score class": "no change with or without drug", "viability z-score with doxorubicin": -1.01, "viability z-score without drug": 0.34}
{"gene symbol": "Rrh", "reagent": 1, "combined z-score class": "no change with or without drug", "viability z-score with doxorubicin": 0.22, "viability z-score without drug": 1.01}
{"gene symbol": "Etnk2", "reagent": 1, "combined z-score class": "no change with or without drug", "viability z-score with doxorubicin": -0.9, "viability z-score without drug": -0.84}
{"gene symbol": "Acox1", "reagent": 1, "combined z-score class": "no change with or without drug", "viability z-score with doxorubicin": -0.79, "viability z-score without drug": -0.51}
{"gene symbol": "St8sia5", "reagent": 1, "combined z-score class": "no change with or without drug", "viability z-score with doxorubicin": 0.22, "viability z-score without drug": 0.84}
{"gene symbol": "Slc39a5", "reagent": 1, "combined z-score class": "no change with or without drug", "viability z-score with doxorubicin": -0.67, "viability z-score without drug": 0.51}

Records listed so far called active (2):
{"gene symbol": "Cdh11", "reagent": 1, "combined z-score class": "low cell count with doxorubicin only (active)", "viability z-score with doxorubicin": -2.25, "viability z-score without drug": -0.67}
{"gene symbol": "Itih4", "reagent": 1, "combined z-score class": "low cell count with doxorubicin only (active)", "viability z-score with doxorubicin": -2.02, "viability z-score without drug": -1.01}
